PubChem BioAssay AID602203 | INSERM | 2012
Shown is one part, drawn at random, of 999 reagents tested. Over the whole deposit, 85 (8.5%) got an active call. 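Unclear how single-siRNA scores of -1, 0 or +1 give the printed -4 to 4 range; calls lie near -3 or 3 and beyond.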 The record does not give: the amount of reagent, the time to read-out, the dose of the treatment.

- Assay: 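Genes whose knock-down alters cisplatin killing of lung cancer cells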 (follow-up of hits)
- Cells: human A549 lung cancer cells
- Reagents: siRNA pair against human genes
- Challenge: cisplatin at a dose killing half of control-siRNA cells, given 48 h after transfection
- Measurement: 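Two siRNAs per gene scored +1 protective, -1 sensitizing, 0 if toxic by LDH or growth-reducing by WST-1; cisplatin given 48 h later at 50% control kill; scores summed, mean death shift versus control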
- Direction: summed siRNA score for cisplatin death: higher = more siRNAs reduced cisplatin-induced cell death; change in cisplatin death versus control: higher = fewer cells died than in control
- Units: change in cisplatin death versus control in percentage points
- Active means: In these data the active calls have summed siRNA score for cisplatin death at about -3 or lower, or at about 3 or higher

What is on record for UTRN?
summed siRNA score for cisplatin death: 1; activity call: inactive

What is on record for CLCA4?
summed siRNA score for cisplatin death: 0; activity call: inactive

What is on record for SERPINB8?
summed siRNA score for cisplatin death: 1; activity call: inactive

For LOC199897 (retired record), what does the deposit list?
summed siRNA score for cisplatin death: 0; activity call: inactive

Which result is listed for CFAP46?
summed siRNA score for cisplatin death: -3; change in cisplatin death versus control: -11.6; activity call: active

What did the screen give for RETNLB?
summed siRNA score for cisplatin death: -2; activity call: inactive

How did the screen score ZNF503-AS2?
summed siRNA score for cisplatin death: -1; activity call: inactive

With KCNB1, what was measured?
summed siRNA score for cisplatin death: -2; activity call: inactive

What did the screen give for PHKG1?
summed siRNA score for cisplatin death: 1; activity call: inactive

For IRF5, what does the deposit list?
summed siRNA score for cisplatin death: 1; activity call: inactive

How did the screen score PDXK?
summed siRNA score for cisplatin death: 3; change in cisplatin death versus control: 4.53; activity call: active

For LOC89231, what was measured?
summed siRNA score for cisplatin death: -1; activity call: inactive

For FAM240C, how do the results read?
summed siRNA score for cisplatin death: 0; activity call: inactive

For BCL2L1, how do the results read?
summed siRNA score for cisplatin death: -3; change in cisplatin death versus control: -17.4; activity call: active

With MRPS27, what was measured?
summed siRNA score for cisplatin death: -1; activity call: inactive

For CCDC197, how do the results read?
summed siRNA score for cisplatin death: -2; activity call: inactive

How did the screen score APAF1?
summed siRNA score for cisplatin death: 4; change in cisplatin death versus control: 12.7; activity call: active

For PLPPR4, what does the deposit list?
summed siRNA score for cisplatin death: 1; activity call: inactive

With HGD, how do the results read?
summed siRNA score for cisplatin death: -3; change in cisplatin death versus control: -10.4; activity call: active

An excerpt from above, showing only “summed siRNA score for cisplatin death”:
CLCA4	0
SERPINB8	1
